Taken from: PubChem BioAssay AID652259 (Drosophila RNAi Screening Center, 2013)
The screen tested about 22,000 reagents; shown is an unselected part of those with a known target gene and a result. Of all reagents, 233 (1.1%) got an active call. 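Light values are raw, unnormalised plate reads; the ratio scores behind the reporter calls were not deposited.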 A number with no mark means an inactive call. Names joined by + are all predicted targets of the reagent. The record does not give: the amount of reagent, the time to read-out, the dose of the treatment.

Assay: 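Genome-wide hunt for genes that control Wingless pathway activity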 (primary screen)
System: Drosophila clone 8 imaginal disc epithelial cells
Knock-down reagent: long dsRNA against Drosophila genes
Challenge: pathway stimulated by co-transfected Wingless expression plasmid
Measured: 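Firefly luciferase from a tcf-site Wingless reporter, measured alongside co-transfected Renilla luciferase that tracks transfection; pathway stimulated by a Wingless plasmid; the firefly-to-Renilla ratio is not deposited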
Scale: firefly reporter light: higher = more Wg reporter light, before normalisation; Renilla control light: higher = more transfected or surviving cells
Active means: 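Strong candidates differ from their plate mean by at least two out of four per-plate statistical tests; weak candidates meet just one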
Calls: active = candidate regulator (raises or lowers reporter); inactive = not a candidate

What is on record for CG12010 [DRSC08218]?
firefly reporter light, replicate 1: 2979; Renilla control light, replicate 1: 1927

With Ntf-2 [DRSC20552], how do the results read?
firefly reporter light, replicate 1: 5003; firefly reporter light, replicate 2: 11116; Renilla control light, replicate 1: 839; Renilla control light, replicate 2: 3104

For CG30379 [DRSC05070], what does the deposit list?
firefly reporter light, replicate 1: 15410; Renilla control light, replicate 1: 7936

With CG17111 [DRSC15174], what does the deposit list?
firefly reporter light, replicate 1: 18304; Renilla control light, replicate 1: 15309

What is on record for exd [DRSC20330]?
firefly reporter light, replicate 1: 19224; Renilla control light, replicate 1: 9474

With Pos [DRSC15415], how do the results read?
firefly reporter light, replicate 1: 20524; Renilla control light, replicate 1: 12246

What is on record for Naxd [DRSC09722]?
firefly reporter light, replicate 1: 4083; Renilla control light, replicate 1: 1600

For BCL7-like [DRSC17729], what was measured?
firefly reporter light, replicate 1: 3177; firefly reporter light, replicate 2: 7761; Renilla control light, replicate 1: 1264; Renilla control light, replicate 2: 3128

With Spn28Db [DRSC22033], what was measured?
firefly reporter light, replicate 1: 4.53e5; firefly reporter light, replicate 2: 4.92e5; Renilla control light, replicate 1: 1.63e5; Renilla control light, replicate 2: 1.91e5

With l(3)07882 [DRSC15882], what does the deposit list?
firefly reporter light, replicate 1: 3104; firefly reporter light, replicate 2: 6919; Renilla control light, replicate 1: 1302; Renilla control light, replicate 2: 2512

With CG13168 [DRSC06295], what does the deposit list?
firefly reporter light, replicate 1: 3945; Renilla control light, replicate 1: 1680

What is on record for maf-S [DRSC07348]?
firefly reporter light, replicate 1: 4036; Renilla control light, replicate 1: 2426

How did the screen score Culd [DRSC10262]?
firefly reporter light, replicate 1: 6599; Renilla control light, replicate 1: 2146

How did the screen score CG33998 [DRSC05747]?
firefly reporter light, replicate 1: 15520; Renilla control light, replicate 1: 11641

For firl [DRSC02428], how do the results read?
firefly reporter light, replicate 1: 2784; firefly reporter light, replicate 2: 6855; Renilla control light, replicate 1: 1351; Renilla control light, replicate 2: 2728

For CG33090 [DRSC01908], what was measured?
firefly reporter light, replicate 1: 6067; Renilla control light, replicate 1: 982

How did the screen score robo1 [DRSC04712]?
firefly reporter light, replicate 1: 3349; firefly reporter light, replicate 2: 6544; Renilla control light, replicate 1: 800; Renilla control light, replicate 2: 2764

For CG31998 [DRSC17137], what does the deposit list?
firefly reporter light, replicate 1: 1843; firefly reporter light, replicate 2: 7185; Renilla control light, replicate 1: 1040; Renilla control light, replicate 2: 2336

Which result is listed for CG31998 [DRSC17138]?
firefly reporter light, replicate 1: 16966; Renilla control light, replicate 1: 14569

For Dredd [DRSC18461], what does the deposit list?
firefly reporter light, replicate 1: 2061; firefly reporter light, replicate 2: 5098; Renilla control light, replicate 1: 752; Renilla control light, replicate 2: 1497

With CG6567 + CG4565 [DRSC15599], what was measured?
firefly reporter light, replicate 1: 13507; Renilla control light, replicate 1: 3581

For Naa30A [DRSC18583], what does the deposit list?
firefly reporter light, replicate 1: 1787; firefly reporter light, replicate 2: 3649; Renilla control light, replicate 1: 721; Renilla control light, replicate 2: 904

What is on record for CG15641 [DRSC19677]?
firefly reporter light, replicate 1: 16992; Renilla control light, replicate 1: 7201

For Ir7f [DRSC18012], how do the results read?
firefly reporter light, replicate 1: 16907; Renilla control light, replicate 1: 8560

What did the screen give for ND-18 [DRSC19441]?
firefly reporter light, replicate 1: 17923; Renilla control light, replicate 1: 7113

For CG34133 [DRSC16319], what was measured?
firefly reporter light, replicate 1: 1429; firefly reporter light, replicate 2: 4295; Renilla control light, replicate 1: 790; Renilla control light, replicate 2: 2012

With CG34133 [DRSC22239], how do the results read?
firefly reporter light, replicate 1: 8.66e5; firefly reporter light, replicate 2: 8.63e5; Renilla control light, replicate 1: 4.00e5; Renilla control light, replicate 2: 3.67e5

For Jheh1 [DRSC06529], what does the deposit list?
firefly reporter light, replicate 1: 7500; Renilla control light, replicate 1: 2860

With 2mit [DRSC14194], what was measured?
firefly reporter light, replicate 1: 13315; Renilla control light, replicate 1: 3844

What is on record for 2mit [DRSC15224]?
firefly reporter light, replicate 1: 8748; Renilla control light, replicate 1: 2776

For CG17959 [DRSC18142], what does the deposit list?
firefly reporter light, replicate 1: 15384; Renilla control light, replicate 1: 11396

With sv [DRSC17221], what was measured?
firefly reporter light, replicate 1: 16000; Renilla control light, replicate 1: 12704

Reformatted: entries from further up
{"predicted target": "CG34133", "amplicon": "DRSC16319", "firefly reporter light, replicate 1": 1429, "firefly reporter light, replicate 2": 4295, "Renilla control light, replicate 1": 790, "Renilla control light, replicate 2": 2012}
{"predicted target": "CG34133", "amplicon": "DRSC22239", "firefly reporter light, replicate 1": 8.66e5, "firefly reporter light, replicate 2": 8.63e5, "Renilla control light, replicate 1": 4.00e5, "Renilla control light, replicate 2": 3.67e5}
